In experiment [1] the target is Arabidopsis FT (AtFT), bait in pGBKT7 (Arabidopsis thaliana), Q9SXZ2. The experiment in a line: two-hybrid; AtFD as prey in PGADT7, FT/TFL1 homologs as bait in PGBKT7; co-transformed yeast selected on SD-Leu/-Trp, interactions tested on SD-Leu/-Trp/-His/-Ade/X-a-Gal; three independent clones for each transformation. To be noted: remark: other sources report otherwise.

Experiment [2] concerns the target AtFT-YFP^C (Arabidopsis FT fused to the C-terminal half of YFP) (Arabidopsis thaliana), Q9SXZ2. The experiment in a line: split reporter; BiFC in N. benthamiana leaf epidermis cells; AtFD-YFP^N (pFGC-YN173) with FT/TFL1 homologs fused to YFP^C (pFGC-YC155); YFP fluorescence by confocal microscopy. To be noted: remark: other sources report otherwise.

These are yes or no findings as the source states them, for the method shown. For some assays here: Binding seen in cells or lysates may run through a third protein. Some results given as binding are weak or reduced against the parent protein; the word gives no strength. For some assays here: Where a sequence is shown, tags or fusion partners need not be part of it.

B1: Arabidopsis FD (AtFD), prey in pGADT7, Q84JK2 1-285 (protein)
chain: MLSSAKHQRNHRLSATNKNQTLTKVSSISSSSPSSSSSSSSTSSSSPLPSQDSQAQKRSLVTMEEVWNDINLASIHHLNRHSPHPQHNHEPRFRGQNHHNQNPNSIFQDFLKGSLNQEPAPTSQTTGSAPNGDSTTVTVLYSSPFPPPATVLSLNSGAGFEFLDNQDPLVTSNSNLHTHHHLSNAHAFNTSFEALVPSSSFGKKRGQDSNEGSGNRRHKRMIKNRESAARSRARKQAYTNELELEVAHLQAENARLKRQQDQLKMAAAIQQPKKNTLQRSSTAPF
B1: in experiment [1], the binding result is given as “binds”.

B2: AtFD-YFP^N (Arabidopsis FD fused to the N-terminal half of YFP), Q84JK2 1-285 (protein)
chain: B1 chain
Turning to B2, the binding result in experiment [2] is given as “binds”.
